No constants are given. Whether binding was seen depends on the method and setting. Binding seen in cells or lysates may run through a third protein. Some binding calls cover weakened binding; strength is not graded here.
T1: mouse endotrophin (C5 domain of the alpha3 chain of mouse collagen VI) (mouse)
T1 sequence: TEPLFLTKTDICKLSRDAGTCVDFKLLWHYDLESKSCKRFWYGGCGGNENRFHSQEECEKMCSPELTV

B1: 10B6-A11 rat anti-mouse endotrophin monoclonal antibody (antibody, V domains shown)
VH: QVQLQQSGPELAKPGSSVKISCKASGYTFTSYEMHWIKQRPGQGLEWIGYIYPESGSTGYNEKFKGKATLTVDKSSPTAYMQLSSLTPDNSAVYFCTRGLRVLGYVMDVWGHGTSVTVSS
VL: DVQLTQSPSFLSASVGDRVTINCKASQNINKYLNWYQQKLGEAPKRLIYNTNNLQTGIPSRFSGSASGTDYTLTISSLHPEDFATYFCLQHSSLYTFGAGTKLELK
B2: 10B6-C3 rat anti-mouse endotrophin monoclonal antibody (antibody, V domains shown)
VH: B1 VH
VL: B1 VL
B3: 10B6-B5 rat anti-mouse endotrophin monoclonal antibody (antibody, V domains shown)
VH: B1 VH
VL: B1 VL

Each binder was assayed against T1, mouse endotrophin (C5 domain of the alpha3 chain of mouse collagen VI) (mouse) (assay: pull-down of IRD-800 labeled native endotrophin with antibody and Protein G Sepharose, Tricine gel, infrared scan).

binding, binds:
B1
B2
B3
